Test [1] addresses inositol 1,4,5-triphosphate receptor 1 (IP3R1) (mouse (endogenous in 3T3-L1)) (UniProt P11881). The experiment in a line: co-IP; anti-IP3R1 antibody on 1 mg total lysate of 3T3-L1 cells before (day 0) and 7 days after adipogenic differentiation, 4°C overnight, Mag Sepharose Xtra beads, washed with TBST (50 mM Tris-HCl, 150 mM NaCl, 0.1% Tween-20, pH 7.4), eluted with 2% SDS; Western blot for GRP75 and VDAC1. For orientation: Immunoblotting shows a protein as a band on a membrane.

The chains behind the UniProt entries cited, without tags or fusion partners. Residues count along the entry.
UniProt P11881: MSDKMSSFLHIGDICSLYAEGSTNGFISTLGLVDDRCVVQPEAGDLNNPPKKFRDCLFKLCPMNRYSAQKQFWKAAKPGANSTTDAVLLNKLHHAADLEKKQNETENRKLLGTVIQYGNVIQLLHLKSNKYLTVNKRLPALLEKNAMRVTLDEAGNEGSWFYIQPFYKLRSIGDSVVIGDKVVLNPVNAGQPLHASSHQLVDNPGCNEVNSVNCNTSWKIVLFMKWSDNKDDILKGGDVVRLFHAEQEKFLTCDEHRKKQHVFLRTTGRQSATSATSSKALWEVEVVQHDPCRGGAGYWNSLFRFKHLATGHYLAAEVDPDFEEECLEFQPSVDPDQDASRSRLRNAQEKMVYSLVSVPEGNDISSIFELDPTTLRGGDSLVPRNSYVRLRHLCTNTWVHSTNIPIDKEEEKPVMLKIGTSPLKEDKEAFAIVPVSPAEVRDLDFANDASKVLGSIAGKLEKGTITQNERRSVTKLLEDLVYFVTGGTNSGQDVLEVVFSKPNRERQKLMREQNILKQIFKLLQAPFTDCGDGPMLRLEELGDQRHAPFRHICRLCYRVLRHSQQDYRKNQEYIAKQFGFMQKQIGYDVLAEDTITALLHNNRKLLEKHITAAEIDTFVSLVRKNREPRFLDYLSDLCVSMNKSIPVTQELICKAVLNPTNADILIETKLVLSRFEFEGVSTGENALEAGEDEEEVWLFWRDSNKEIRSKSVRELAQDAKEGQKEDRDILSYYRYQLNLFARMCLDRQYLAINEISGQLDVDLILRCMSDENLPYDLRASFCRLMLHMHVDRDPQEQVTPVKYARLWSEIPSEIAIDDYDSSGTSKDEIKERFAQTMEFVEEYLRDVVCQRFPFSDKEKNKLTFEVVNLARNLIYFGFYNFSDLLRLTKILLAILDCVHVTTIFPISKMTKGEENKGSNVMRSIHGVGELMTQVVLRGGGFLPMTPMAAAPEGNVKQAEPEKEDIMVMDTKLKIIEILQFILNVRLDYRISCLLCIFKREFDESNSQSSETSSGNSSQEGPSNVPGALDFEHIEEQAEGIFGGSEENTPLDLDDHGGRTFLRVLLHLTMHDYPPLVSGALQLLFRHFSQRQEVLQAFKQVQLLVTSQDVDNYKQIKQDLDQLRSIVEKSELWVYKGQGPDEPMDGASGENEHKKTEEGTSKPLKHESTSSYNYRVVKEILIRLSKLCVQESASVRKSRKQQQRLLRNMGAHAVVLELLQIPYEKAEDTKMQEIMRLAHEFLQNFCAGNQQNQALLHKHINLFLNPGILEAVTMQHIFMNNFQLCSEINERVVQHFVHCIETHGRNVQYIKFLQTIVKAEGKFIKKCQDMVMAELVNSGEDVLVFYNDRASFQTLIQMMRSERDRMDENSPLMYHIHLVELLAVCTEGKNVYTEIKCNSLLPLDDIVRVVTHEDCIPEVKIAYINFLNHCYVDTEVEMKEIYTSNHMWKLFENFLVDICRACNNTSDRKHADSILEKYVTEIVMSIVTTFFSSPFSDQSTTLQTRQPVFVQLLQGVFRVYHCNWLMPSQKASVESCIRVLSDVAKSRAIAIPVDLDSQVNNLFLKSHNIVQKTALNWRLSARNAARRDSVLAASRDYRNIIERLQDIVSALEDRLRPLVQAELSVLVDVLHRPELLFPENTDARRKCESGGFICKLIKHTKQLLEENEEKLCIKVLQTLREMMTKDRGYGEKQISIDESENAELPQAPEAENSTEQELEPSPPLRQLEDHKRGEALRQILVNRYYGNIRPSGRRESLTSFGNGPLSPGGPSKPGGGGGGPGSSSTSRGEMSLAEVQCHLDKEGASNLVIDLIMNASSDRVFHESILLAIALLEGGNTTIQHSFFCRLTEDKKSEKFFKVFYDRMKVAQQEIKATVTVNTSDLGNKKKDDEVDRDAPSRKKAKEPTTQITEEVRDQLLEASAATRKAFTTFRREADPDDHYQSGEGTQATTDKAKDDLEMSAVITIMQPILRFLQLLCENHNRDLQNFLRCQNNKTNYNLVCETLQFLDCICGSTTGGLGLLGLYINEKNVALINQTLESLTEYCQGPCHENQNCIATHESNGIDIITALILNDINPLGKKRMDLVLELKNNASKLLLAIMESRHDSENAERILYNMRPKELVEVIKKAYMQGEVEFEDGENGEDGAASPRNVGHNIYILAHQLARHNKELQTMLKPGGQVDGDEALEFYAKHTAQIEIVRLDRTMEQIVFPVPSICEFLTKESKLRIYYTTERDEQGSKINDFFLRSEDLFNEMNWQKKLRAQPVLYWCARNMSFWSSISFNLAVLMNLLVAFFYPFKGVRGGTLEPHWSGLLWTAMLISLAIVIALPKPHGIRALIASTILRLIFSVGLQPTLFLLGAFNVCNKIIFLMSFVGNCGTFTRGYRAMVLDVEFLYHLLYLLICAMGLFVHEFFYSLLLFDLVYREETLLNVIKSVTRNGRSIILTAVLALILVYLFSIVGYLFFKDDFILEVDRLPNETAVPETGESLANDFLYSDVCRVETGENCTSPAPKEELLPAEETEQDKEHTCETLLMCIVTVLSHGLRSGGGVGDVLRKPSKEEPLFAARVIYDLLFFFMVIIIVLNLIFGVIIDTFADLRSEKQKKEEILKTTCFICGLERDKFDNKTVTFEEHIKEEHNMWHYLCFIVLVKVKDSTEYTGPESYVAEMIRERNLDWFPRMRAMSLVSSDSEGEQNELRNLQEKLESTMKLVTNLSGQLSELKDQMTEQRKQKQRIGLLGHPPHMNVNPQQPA
UniProt P38647, residues 47-679: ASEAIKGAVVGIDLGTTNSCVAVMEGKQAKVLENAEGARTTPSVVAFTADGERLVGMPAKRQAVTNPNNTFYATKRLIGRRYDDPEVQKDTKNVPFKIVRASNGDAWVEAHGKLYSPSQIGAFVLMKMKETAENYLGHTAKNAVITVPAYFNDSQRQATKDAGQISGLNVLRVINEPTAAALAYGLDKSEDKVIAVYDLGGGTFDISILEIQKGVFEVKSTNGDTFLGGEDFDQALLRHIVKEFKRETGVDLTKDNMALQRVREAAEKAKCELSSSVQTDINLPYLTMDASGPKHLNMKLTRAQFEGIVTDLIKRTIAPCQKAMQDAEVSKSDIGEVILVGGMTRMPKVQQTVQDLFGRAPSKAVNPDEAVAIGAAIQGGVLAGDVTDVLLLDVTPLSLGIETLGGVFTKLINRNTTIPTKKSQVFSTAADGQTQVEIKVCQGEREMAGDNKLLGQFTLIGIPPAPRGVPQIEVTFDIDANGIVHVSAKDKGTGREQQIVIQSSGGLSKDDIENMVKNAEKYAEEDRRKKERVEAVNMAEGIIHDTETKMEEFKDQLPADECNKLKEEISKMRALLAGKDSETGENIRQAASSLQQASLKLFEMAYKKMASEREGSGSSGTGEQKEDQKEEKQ

Test [2] has as its target glucose-regulated protein 75 (GRP75) (mouse (endogenous in 3T3-L1)) (UniProt P38647). The experiment in a line: co-IP; reciprocal: anti-GRP75 antibody on 1 mg total lysate of 3T3-L1 cells before (day 0) and 7 days after adipogenic differentiation, 4°C overnight, Mag Sepharose Xtra beads, washed with TBST (50 mM Tris-HCl, 150 mM NaCl, 0.1% Tween-20, pH 7.4), eluted with 2% SDS; Western blot for IP3R1 and ….

Results are given in words; binding and its absence hold for the method and conditions named. Binding seen in cells or lysates may run through a third protein. Some entries that bind do so weakly or less than the wild type.

As to “glucose-regulated protein 75 (GRP75) (from UniProt P38647 47-679)”, the binding result in test [1] is “binds”. In the case of “inositol 1,4,5-triphosphate receptor 1 (IP3R1) (from UniProt P11881 1-2749)”, the binding entry in test [2] is recorded as “binds”.

These data come from article PMC9504280.
